# Results as given in publication PMC5706330.
# Sequences of proteins named here, by UniProt entry; tags and fusion partners are left off. Residues count along the entry.
# UniProt O70437: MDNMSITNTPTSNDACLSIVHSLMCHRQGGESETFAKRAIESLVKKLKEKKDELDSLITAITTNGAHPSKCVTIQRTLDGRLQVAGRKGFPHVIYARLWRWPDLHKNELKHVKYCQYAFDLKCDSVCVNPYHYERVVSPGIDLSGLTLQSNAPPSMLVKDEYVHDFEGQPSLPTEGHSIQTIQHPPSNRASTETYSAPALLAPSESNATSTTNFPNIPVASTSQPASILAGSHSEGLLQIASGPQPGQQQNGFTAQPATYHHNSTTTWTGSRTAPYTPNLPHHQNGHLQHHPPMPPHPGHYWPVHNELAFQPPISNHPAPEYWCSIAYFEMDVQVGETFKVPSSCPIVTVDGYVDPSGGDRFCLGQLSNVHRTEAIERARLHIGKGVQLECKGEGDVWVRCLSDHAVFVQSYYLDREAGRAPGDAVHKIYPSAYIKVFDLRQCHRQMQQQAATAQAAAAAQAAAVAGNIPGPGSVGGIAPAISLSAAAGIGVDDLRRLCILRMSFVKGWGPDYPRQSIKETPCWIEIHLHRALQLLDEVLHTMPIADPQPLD
# UniProt P84025: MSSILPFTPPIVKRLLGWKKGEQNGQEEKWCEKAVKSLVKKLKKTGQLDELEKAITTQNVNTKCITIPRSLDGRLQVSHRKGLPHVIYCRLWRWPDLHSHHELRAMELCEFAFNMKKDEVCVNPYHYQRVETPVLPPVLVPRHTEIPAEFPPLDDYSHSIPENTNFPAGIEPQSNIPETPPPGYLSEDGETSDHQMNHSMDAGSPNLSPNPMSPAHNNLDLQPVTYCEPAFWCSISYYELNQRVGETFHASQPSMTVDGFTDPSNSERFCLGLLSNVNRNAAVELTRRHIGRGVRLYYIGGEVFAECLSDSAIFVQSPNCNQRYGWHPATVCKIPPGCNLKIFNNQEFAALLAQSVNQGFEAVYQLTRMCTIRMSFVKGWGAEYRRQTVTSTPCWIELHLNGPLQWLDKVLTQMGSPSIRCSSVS
# UniProt Q5I0H3, residues 1-97: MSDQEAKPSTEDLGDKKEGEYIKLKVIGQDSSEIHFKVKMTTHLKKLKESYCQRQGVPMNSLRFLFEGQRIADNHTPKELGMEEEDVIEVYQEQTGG
# These are yes or no findings as the source states them, for the method shown. In cells and extracts the contact can be indirect. Some results given as binding are weak or reduced against the parent protein; the word gives no strength.
# How the values were obtained:
# [1] = biological target: Smad4 (rat (endogenous in hippocampus)) (UniProt O70437); assay: co-IP; endogenous proteins in clarified rat hippocampal/CA1 lysate (0.5 mg); IP with anti-Smad4, anti-PIAS1 or anti-pSmad3 antibody at 4 °C overnight, protein A or G magnetic beads, washes with 150 mM NaCl and 1% IGEPAL CA-630, western blot; animals untreated, or water maze trained (1 day) versus swimming controls
# [2] = biological target: phosphorylated Smad3 (rat (endogenous in hippocampal CA1)) (UniProt P84025); assay: as above
Substance,binding [1],binding [2]
SUMO1 (from UniProt Q5I0H3 1-97),binds,
Smad4 (from UniProt O70437 1-552),,binds
